This assay has as its system P388 leukemia ip, CD2F1 mice, survival T/C. Put plainly: NCI In Vivo Anticancer Drug Screen. Data for tumor model P388 Leukemia (intraperitoneal) in CD2F1 (CDF1) mice. To be noted: T/C endpoint: median survival time, higher T/C = longer survival.
Setting [1] is: dose: 50.0 mg/kg/injection, schedule: Q01DX009 (ip), vehicle: saline with Tween-80.
Setting [2] is: dose: 100.0 mg/kg/injection, schedule: Q01DX009 (ip), vehicle: saline with Tween-80.
[3] abbreviates: dose: 200.0 mg/kg/injection, schedule: Q01DX009 (ip), vehicle: saline with Tween-80.
Where [4] appears, read: dose: 200.0 mg/kg/injection, schedule: Q01DX009 (ip), vehicle: saline.
Setting [5] is: dose: 25.0 mg/kg/injection, schedule: Q01DX005 (ip), vehicle: Klucel (hydroxypropylcellulose) (HPC).
[6] abbreviates: dose: 100.0 mg/kg/injection, schedule: Q01DX005 (ip), vehicle: Klucel (hydroxypropylcellulose) (HPC).
[7] abbreviates: dose: 200.0 mg/kg/injection, schedule: Q01DX005 (ip), vehicle: Klucel (hydroxypropylcellulose) (HPC).
[8] abbreviates: dose: 50.0 mg/kg/injection, schedule: Q01DX009 (ip), vehicle: saline.
[9] abbreviates: dose: 100.0 mg/kg/injection, schedule: Q01DX009 (ip), vehicle: saline.
The mark [10] stands for this setting: dose: 200.0 mg/kg/injection, schedule: Q01DX005 (ip), vehicle: saline with Tween-80.

SMILES strings stand for the structures. The list does not hold the whole screen: it is rich in T/C values a quarter to a half above the control, in often repeated tests (any T/C) and in doses without a T/C. Other doses and runs of a compound stand elsewhere. T/C gives the treated animals as a percentage of the vehicle group. Some entries give survivors of the animals treated and no T/C: the source files T/C as zero there, which appears to mark a toxic dose or a test without result, not a measured value. Some doses without a T/C left all or most animals alive at the check, yet need not have been tolerated: the source hardly ever lists a survival T/C far under the control, and the zero likely stands for such cases as well. Survivors were counted at the toxicity check, usually on the fifth day, unless a day is given; later deaths do not show. Schedule codes are those of the source, taken here to give the interval after Q, in days (D) or hours (H), and the number of doses after X. Some entries were tested several times; their values stand side by side, smallest first. For survival time, this PubChem deposit counts one and a half times the control or more as active, and values a quarter to a half above the control carry no call in these data; other NCI protocols may use other cut-offs. Some T/C values carry the count of animals alive at the toxicity check (mostly the fifth day); without a count, all were alive then.

As to `N#CC(C(=O)C(=O)Nc1ccc(Cl)cc1Cl)c1c(Cl)cccc1Cl` (stereo unspecified), the survivor count (dose: 240.0 mg/kg/injection, schedule: Q01DX005 (ip), vehicle: saline with Tween-80) was 1 of 6.
As to `Cc1cnc(F)nc1F`, the survivor count (dose: 200.0 mg/kg/injection, schedule: Q01DX005 (ip), vehicle: saline) is given as 0 of 6.
Consider `CN(C)c1ccc2nc(/C=N/NC(N)=S)ccc2c1`, for which the survivor count (dose: 400.0 mg/kg/injection, schedule: Q04DX002 (ip), vehicle: distilled water + Tween-80 + alcohol) is reported as 0 of 6.
Take `C=CC(=NC(C)(C)C)Nc1ccccc1`: the survivor count is recorded as 2 of 6 under setting [1], 0 of 6 under setting [2] and 0 of 6 under setting [3].
For the molecule `CCCCOc1cccc2c(NCCCCNCCCNc3c4ccccc4nc4c(OCCCC)cccc34)c3ccccc3nc12`, the T/C by setting is: (dose: 2.5 mg/kg/injection, schedule: Q01DX009 (ip), vehicle: other) 128 % of control; (dose: 5.0 mg/kg/injection, schedule: Q01DX009 (ip), vehicle: other) 127 % of control. Moreover, the survivor count runs as follows: (dose: 10.0 mg/kg/injection, schedule: Q01DX009 (ip), vehicle: other) 0 of 6 and 5 of 6; (dose: 20.0 mg/kg/injection, schedule: Q01DX009 (ip), vehicle: other) 0 of 6; (dose: 40.0 mg/kg/injection, schedule: Q01DX009 (ip), vehicle: other) 0 of 6.
On to `COc1ccc(CC(N)c2ccccc2)cc1` (stereo unspecified), for which, under setting [4], the survivor count is 0 of 6.
In the case of `CCNc1ncc2c(n1)N(CC)C(=O)/C(=C\C(=O)OC)N2`, the survivor count (dose: 75.0 mg/kg/injection, schedule: Q01DX009 (ip), vehicle: saline with Tween-80) is on record as 6 of 6.
On to `COc1cc2c(c(OC)c1OC)-c1ccc(S(C)(=O)=O)c(=O)cc1[C@@H](NC(C)=O)CC2`, for which the T/C (dose: 6.25 mg/kg/injection, schedule: Q01DX009 (ip), vehicle: Klucel (hydroxypropylcellulose) (HPC)) was 125 % of control and the T/C (dose: 25.0 mg/kg/injection, schedule: Q01DX009 (ip), vehicle: Klucel (hydroxypropylcellulose) (HPC)) is 139 % of control. In addition, the survivor count (dose: 50.0 mg/kg/injection, schedule: Q01DX009 (ip), vehicle: Klucel (hydroxypropylcellulose) (HPC)) is 5 of 6 and 6 of 6.
Turning to `COc1cc[c]([Sn]([O][Sn]([Cl])([c]2ccc(OC)cc2)[c]2ccc(OC)cc2)[c]2ccc(OC)cc2)cc1`, the T/C reads like this: (dose: 12.5 mg/kg/injection, schedule: Q01DX005 (ip), vehicle: Klucel (hydroxypropylcellulose) (HPC)) 125 % of control; under setting [5], 131 % of control. Also, the survivor count runs as follows: (dose: 50.0 mg/kg/injection, schedule: Q01DX005 (ip), vehicle: Klucel (hydroxypropylcellulose) (HPC)) 0 of 6; under setting [6], 0 of 6; under setting [7], 0 of 6.
Consider `CCc1ccc(/C=C/C(=O)C(C)CN(C)C)cc1` (stereo unspecified), for which the survivor count (dose: 240.0 mg/kg/injection, schedule: Q01DX005 (ip), vehicle: saline) is recorded as 6 of 6.
For the molecule `CCCCCCCCCCCC[n+]1ccc(-c2cc[n+](CCCCCCCCCCCC)cc2)cc1`, the survivor count runs as follows: under setting [8], 0 of 6; under setting [9], 0 of 6; under setting [4], 0 of 6.
`COc1ccc(OC)c(N2C(=O)C(Cl)=C(Cl)C2=O)c1`: the survivor count is 0 of 6 (dose: 100.0 mg/kg/injection, schedule: Q01DX001 (ip), vehicle: saline with Tween-80); 0 of 6 (dose: 200.0 mg/kg/injection, schedule: Q01DX001 (ip), vehicle: saline with Tween-80); 0 of 6 (dose: 400.0 mg/kg/injection, schedule: Q01DX001 (ip), vehicle: saline with Tween-80).
Consider `NC(N)=Nc1ccc(-c2cc3cc(N=C(N)N)ccc3s2)cc1`, for which the survivor count reads like this: under setting [6], 1 of 5; under setting [7], 0 of 5.
For the molecule `CC(=O)Nc1ccc(NC(=O)c2ccc([As](O)O)cc2)cc1`, the T/C was 130 % of control (dose: 100.0 mg/kg/injection, schedule: Q04DX003 (ip), vehicle: other); 125 % of control (dose: 200.0 mg/kg/injection, schedule: Q04DX003 (ip), vehicle: other); 125 % of control [4 of 6 alive] (dose: 400.0 mg/kg/injection, schedule: Q04DX003 (ip), vehicle: other).
As for `NC1=NS(=O)(=O)Nc2nc[nH]c21`, under setting [3], the survivor count is 6 of 6.
As to `COC1=CC(=O)C(c2cc(O)c(OC)cc2O)=CC1=O`, the survivor count (dose: 100.0 mg/kg/injection, schedule: Q01DX005 (ip), vehicle: saline with Tween-80) was 2 of 5 and the survivor count under setting [10] is 1 of 5.
On to `Cc1ccc(NC(=O)c2cc3ccccc3cc2O)c(C)c1.Cc1ccc(NC(=O)c2cc3ccccc3cc2[O-])c(C)c1.[Ni+2]`, for which the survivor count by setting is: (dose: 12.5 mg/kg/injection, schedule: Q01DX009 (ip), vehicle: saline) 6 of 6; (dose: 25.0 mg/kg/injection, schedule: Q01DX009 (ip), vehicle: saline) 6 of 6; under setting [8], 6 of 6; under setting [9], 1 of 6; under setting [4], 0 of 6.
Take `N#Cc1c(NC(=O)Nc2cc(C(F)(F)F)ccc2Cl)sc(=S)c2c1CCCC2`: the survivor count under setting [10] is listed as 1 of 5.
Take `O=C1C(=C(Cl)Cl)C(=O)c2ccccc21`: the survivor count under setting [5] is 5 of 6, the survivor count under setting [6] is listed as 1 of 6 and the survivor count under setting [7] is on record as 0 of 6.
Turning to `Nc1ccc(F)cc1S`, the T/C is, setting by setting: under setting [1], 125 and 134 % of control; under setting [2], 129 % of control; under setting [3], 139 % of control. Further, the survivor count under setting [3] was 5 of 6.
In the case of `CC(=O)On1nnc2ccccc2c1=O`, the survivor count (dose: 50.0 mg/kg/injection, schedule: Q01DX009 (ip), vehicle: distilled water + Tween-80) is on record as 5 of 6 and the survivor count (dose: 100.0 mg/kg/injection, schedule: Q01DX009 (ip), vehicle: distilled water + Tween-80) was 4 of 6.
